Some entries share one result that the patent states for a list of compounds.
Tests used:
[1] = system: Mycosphaerella graminicola; test: In vivo test on Mycosphaerella graminicola (wheat leaf spot); details: dose of 500 ppm; wheat plants sprayed 24 hours before contamination; grading (% of efficacy) 21 to 28 days after the contamination
[2] = system: Pyrenophora teres; test: In vivo test on Pyrenophora teres (barley net blotch); details: dose of 500 ppm; barley plants sprayed 24 hours before contamination; grading 12 days after the contamination
[3] = system: Puccinia triticina; test: Puccinia triticina-test (wheat)/preventive; details: 1000 ppm of active ingredient, preventive, evaluated 8 days after the inoculation
[4] = system: Puccinia recondita; test: In vivo test on Puccinia recondita (brown rust); details: dose of 500 ppm; wheat plants sprayed 24 hours before contamination; grading 10 days after the contamination
[5] = system: Uromyces appendiculatus; test: Uromyces test (beans)/protective; type: in vivo; details: 100 ppm of active ingredient, protective, evaluated 10 days after the inoculation
[6] = system: Botrytis cinerea; test: In vivo test on Botrytis cinerea (grey mould); details: dose of 500 ppm; gherkin plants sprayed 24 hours before contamination; grading 5/7 days after the contamination
[7] = system: Venturia inaequalis; test: Venturia test (apples)/protective; type: in vivo; details: 100 ppm of active ingredient, protective, evaluated 10 days after the inoculation
[8] = system: Peronospora parasitica; test: In vivo test on Peronospora parasitica (crucifer downy mildew); details: dose of 500 ppm; cabbage plants sprayed 24 hours before contamination; grading 5 days after the contamination, in comparison with the control plants
[9] = system: Fusarium nivale (var. majus); test: Fusarium nivale (var. majus)-test (wheat)/preventive; details: 1000 ppm of active ingredient, preventive, evaluated 5 days after the inoculation
[10] = system: Leptosphaeria nodorum; test: Leptosphaeria test (wheat)/preventive; details: 500 ppm of active ingredient, preventive, evaluated 7-9 days after the inoculation

| Compound | good (at least 70%) or total protection [1] | good (at least 70%) protection [2] | good (at least 70%) or total protection [8] | other results |
| --- | --- | --- | --- | --- |
| CCN(CC)CC(C)NC(=O)c1cc(-c2ncnc(Nc3cccc(Cl)c3)n2)ccn1 (stereo not drawn) [Example B114] | at least 70% | – | – | – |
| CNN=C(C)c1cc(-c2ncnc(Nc3cccc(Cl)c3)n2)ccn1 [Example B75] | at least 70% | at least 70% | – | – |
| CCN(C)C(=O)c1cc(-c2ncnc(Nc3ccccc3)n2)ccn1 [Example B316] | – | at least 70% | at least 70% | efficacy [3]: ≥ 70%; good (at least 70%) or total protection [4]: at least 70%; efficacy [5]: ≥ 70%; good (at least 70%) or total protection [6]: at least 70%; efficacy [7]: ≥ 70%; efficacy [9]: ≥ 70% |
| CN(C)C(=O)c1cc(-c2ncnc(Nc3cccc(Cl)c3)n2)ccn1 [Example B150] | – | at least 70% | at least 70% | good (at least 70%) or total protection [4]: at least 70%; good (at least 70%) or total protection [6]: at least 70% |
| CC(C)=CC(=O)O/N=C(/N)c1cc(-c2ncnc(Nc3cccc(Cl)c3)n2)ccn1 [Example B111] | – | at least 70% | at least 70% | good (at least 70%) or total protection [4]: at least 70% |
| CO/N=C(\C)c1cc(-c2ncnc(Nc3cccc(Cl)c3)n2)ccn1 [Example B27, N-(3-chlorophenyl)-4-{2-[(1E)-N-methoxyethanimidoyl]pyridin-4-yl}-1,3,5-triazin-2-amine] | – | – | at least 70% | efficacy [10]: ≥ 70% |
| O=CN1CCN(C(=O)c2cc(-c3ncnc(Nc4cccc(Cl)c4)n3)ccn2)CC1 [Example B163] | – | at least 70% | at least 70% | good (at least 70%) or total protection [4]: at least 70%; good (at least 70%) or total protection [6]: at least 70% |
| C=CCN(C)C(=O)c1cc(-c2ccnc(Nc3ccnc(Cl)c3)n2)ccn1 [Example A25] | – | – | – | good (at least 70%) or total protection [4]: at least 70%; good (at least 70%) or total protection [6]: at least 70% |
| CC(C)N(CCO)C(=O)c1cc(-c2ncnc(Nc3cccc(Cl)c3)n2)ccn1 [Example B180] | – | at least 70% | at least 70% | – |
| CCCCN(CC)C(=O)c1cc(-c2ncnc(Nc3ccc(OC)nc3)n2)ccn1 [Example C11] | – | at least 70% | – | good (at least 70%) or total protection [4]: at least 70%; good (at least 70%) or total protection [6]: at least 70% |
| CCCN(CCO)C(=O)c1cc(-c2ncnc(Nc3cccc(Cl)c3)n2)ccn1 [Example B181] | – | at least 70% | at least 70% | – |
| CCC(COC)NC(=O)c1cc(-c2ncnc(Nc3ccc(F)c(Cl)c3)n2)ccn1 (stereo not drawn) [Example B195] | at least 70% | – | – | – |
| COc1ccc(Nc2ncnc(-c3ccnc(C(=O)N4CCCCC4)c3)n2)cn1 [Example C2, (4-{4-[(6-methoxypyridin-3-yl)amino]-1,3,5-triazin-2-yl}pyridin-2-yl)(piperidin-1-yl)methanone] | – | at least 70% | at least 70% | – |
| CCC1CCCCN1C(=O)c1cc(-c2ncnc(Nc3cccc(Cl)c3)n2)ccn1 (stereo not drawn) [Example B139] | – | at least 70% | at least 70% | – |
| COC1CCCN(C(=O)c2cc(-c3ncnc(Nc4cccc(Cl)c4)n3)ccn2)C1 (stereo not drawn) [Example B179] | – | at least 70% | at least 70% | good (at least 70%) or total protection [6]: at least 70% |
| COCCNC(=O)c1cc(-c2ncnc(Nc3ccc(C)c(Cl)c3)n2)ccn1 [Example B227] | at least 70% | – | – | – |
| O=C(NCC1CCCO1)c1cc(-c2ncnc(Nc3cccc(Cl)c3)n2)ccn1 (stereo not drawn) [Example B33] | at least 70% | – | – | – |
| CCCN(CCC)C(=O)c1cc(-c2ccnc(Nc3ccnc(Cl)c3)n2)ccn1 [Example A11] | – | at least 70% | at least 70% | – |
| Cc1ccc(Nc2ncnc(-c3ccnc(C(=O)NC4CC4)c3)n2)cc1Cl [Example B226] | at least 70% | – | – | – |
| CCC(CC#N)NC(=O)c1cc(-c2ncnc(Nc3cccc(Cl)c3)n2)ccn1 (stereo not drawn) [Example B95] | at least 70% | – | – | – |
| O=C(NC1CC1)c1cc(-c2ncnc(Nc3ccc(F)c(Cl)c3)n2)ccn1 [Example B192] | at least 70% | at least 70% | – | – |
| O=C(c1cc(-c2ncnc(Nc3cccc(Cl)c3)n2)ccn1)N1CCC(O)CC1 [Example B173] | – | at least 70% | at least 70% | – |

| Compound | good (at least 70%) or total protection [1] | good (at least 70%) protection [2] | good (at least 70%) or total protection [8] | other results |
| --- | --- | --- | --- | --- |
| O=C(NC1CCC1)c1cc(-c2ncnc(Nc3cccc(Cl)c3)n2)ccn1 [Example B113] | at least 70% | at least 70% | – | – |
| CCN(CCO)C(=O)c1cc(-c2ncnc(Nc3cccc(Cl)c3)n2)ccn1 [Example B164] | – | at least 70% | at least 70% | good (at least 70%) or total protection [4]: at least 70% |
| CCC(C)NC(=O)c1cc(-c2ncnc(Nc3ccc(F)c(Cl)c3)n2)ccn1 (stereo not drawn) [Example B197] | at least 70% | – | – | – |
| CN(CCC#N)C(=O)c1cc(-c2ncnc(Nc3cc(F)ccc3F)n2)ccn1 [Example B237] | – | at least 70% | – | good (at least 70%) or total protection [4]: at least 70%; good (at least 70%) or total protection [6]: at least 70% |
| O=C(NCCCN1CCCCCC1=O)c1cc(-c2ncnc(Nc3ccc(F)c(Cl)c3)n2)ccn1 [Example B194] | at least 70% | – | – | – |
| CCN(C)C(=S)c1cc(-c2ncnc(Nc3cccc(OC(F)(F)C(F)F)c3)n2)ccn1 [Example B261] | – | – | – | efficacy [3]: ≥ 70%; efficacy [10]: ≥ 70%; efficacy [5]: ≥ 70%; efficacy [7]: ≥ 70%; efficacy [9]: ≥ 70% |
| CCN(CC)C(=O)c1cc(-c2ncnc(Nc3cccc(OC)c3)n2)ccn1 [Example B273] | – | – | – | efficacy [3]: ≥ 70%; efficacy [10]: ≥ 70%; efficacy [5]: ≥ 70%; efficacy [7]: ≥ 70%; efficacy [9]: ≥ 70% |
| CCCC(C)NC(=O)c1cc(-c2ncnc(Nc3cccc(Cl)c3)n2)ccn1 (stereo not drawn) [Example B118] | at least 70% | – | – | – |
| CCC(=NOC)c1cc(-c2ncnc(Nc3cccc(Cl)c3)n2)ccn1 (mixture of isomers) [Example B85] | at least 70% | at least 70% | – | – |
| CN(CC1CC1)C(=O)c1cc(-c2ccnc(Nc3ccnc(Cl)c3)n2)ccn1 [Example A31] | – | – | – | good (at least 70%) or total protection [6]: at least 70% |
| CC(=NOC(C1CC1)C1CC1)c1cc(-c2ncnc(Nc3cccc(Cl)c3)n2)ccn1 (mixture of isomers) [Example B48] | at least 70% | – | – | – |
| NC(=S)c1cc(-c2ncnc(Nc3cccc(Cl)c3)n2)ccn1 [Example B119] | – | – | at least 70% | – |
| O=C(c1cc(-c2ccnc(Nc3ccnc(Cl)c3)n2)ccn1)N1CCCC1 [Example A7] | – | – | – | good (at least 70%) or total protection [4]: at least 70% |
| CC1CC(C)CN(C(=O)c2cc(-c3ncnc(Nc4cccc(Cl)c4)n3)ccn2)C1 (stereo not drawn) [Example B155] | – | at least 70% | – | good (at least 70%) or total protection [6]: at least 70% |
| CCC(=O)c1cc(-c2ncnc(Nc3cccc(Cl)c3)n2)ccn1 [Example B45] | at least 70% | at least 70% | – | – |
| CCCN(C)C(=O)c1cc(-c2ccnc(Nc3ccnc(Cl)c3)n2)ccn1 [Example A13] | – | – | – | good (at least 70%) or total protection [6]: at least 70% |
| CCCC#CCON=C(CC)c1cc(-c2ncnc(Nc3cccc(Cl)c3)n2)ccn1 (mixture of isomers) [Example B46] | at least 70% | – | – | – |
| CCN(CC)C(=S)c1cc(-c2ncnc(Nc3cccc(F)c3)n2)ccn1 [Example B11] | – | – | – | efficacy [3]: ≥ 70%; efficacy [10]: ≥ 70%; efficacy [5]: ≥ 70%; efficacy [7]: ≥ 70%; efficacy [9]: ≥ 70% |
| CCCN(C)C(=O)c1cc(-c2ncnc(Nc3ccc(F)cc3)n2)ccn1 [Example B16] | – | – | – | efficacy [3]: ≥ 70%; efficacy [10]: ≥ 70%; efficacy [5]: ≥ 70%; efficacy [7]: ≥ 70%; efficacy [9]: ≥ 70% |
| CN(CC1CCCO1)C(=O)c1cc(-c2ccnc(Nc3ccnc(Cl)c3)n2)ccn1 (stereo not drawn) [Example A15] | – | – | – | good (at least 70%) or total protection [6]: at least 70% |
| CCN(CC)C(=O)c1cc(-c2ncnc(Nc3ccc(OC)nc3)n2)ccn1 [Example C4] | – | at least 70% | – | good (at least 70%) or total protection [4]: at least 70% |
| COc1ccc(Nc2ncnc(-c3ccnc(C(=O)N(C)C)c3)n2)cn1 [Example C8] | – | at least 70% | – | good (at least 70%) or total protection [4]: at least 70% |
